Results as given in publication doi:10.1101/2020.07.27.219501.
No constants are given. Whether binding was seen depends on the method and setting. Binding seen in cells or lysates may run through a third protein. Some binding calls cover weakened binding; strength is not graded here.

Sequences of proteins named here, by UniProt entry; tags and fusion partners are left off. A change or cut given only in a name is not applied to a line headed by its entry.
UniProt P61006: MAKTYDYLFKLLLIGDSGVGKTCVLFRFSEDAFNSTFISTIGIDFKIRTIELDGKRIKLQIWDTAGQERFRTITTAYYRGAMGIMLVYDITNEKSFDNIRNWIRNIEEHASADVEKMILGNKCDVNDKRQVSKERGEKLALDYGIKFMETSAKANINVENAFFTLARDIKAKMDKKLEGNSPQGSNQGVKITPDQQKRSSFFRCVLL

What was measured:
3xFLAG-Rab8a T72A = 3xFLAG-Rab8a T72A (UniProt P61006); test: co-IP
3xFLAG-Rab8a WT = 3xFLAG-Rab8a WT (UniProt P61006); test: co-IP

B1: Rabin8 (endogenous) (protein, UniProt Q96QF0 1-476)
chain: MGLKKMKGLSYDEAFAMANDPLEGFHEVNLASPTSPDLLGVYESGTQEQTTSPSVIYRPHPSALSSVPIQANALDVSELPTQPVYSSPRRLNCAEISSISFHVTDPAPCSTSGVTAGLTKLTTRKDNYNAEREFLQGATITEACDGSDDIFGLSTDSLSRLRSPSVLEVREKGYERLKEELAKAQRELKLKDEECERLSKVRDQLGQELEELTASLFEEAHKMVREANIKQATAEKQLKEAQGKIDVLQAEVAALKTLVLSSSPTSPTQEPLPGGKTPFKKGHTRNKSTSSAMSGSHQDLSVIQPIVKDCKEADLSLYNEFRLWKDEPTMDRTCPFLDKIYQEDIFPCLTFSKSELASAVLEAVENNTLSIEPVGLQPIRFVKASAVECGGPKKCALTGQSKSCKHRIKLGDSSNYYYISPFCRYRITSVCNFFTYIRYIQQGLVKQQDVDQMFWEVMQLRKEMSLAKLGYFKEEL
For B1, the binding (3xFLAG-Rab8a T72A) was “binds” and the binding (3xFLAG-Rab8a WT) was “binds”.
